According to US20090104705A1, “Ascorbic acid conjugates” (priority 2005, published 2009):

Assays:
[1] = Plasma ascorbyl-HNE conjugate by LC/MS/MS-MRM in smokers and nonsmokers; assay type: in vivo, human; conditions: mean ± SD
Protocol: Plasma samples were obtained from subjects who participated in a recently completed study at the Linus Pauling Institute. Participants were recruited on the basis of normal lipid status (total cholesterol <200 mg/dL; triglycerides <200 mg/dL), age (18-35 years), non-nutritional supplement use for greater than six months, and exercise status (<5 h/w of aerobic activity). Smokers were selected if they smoked >10 cigarettes/d, and smoking status of participants was verified by the measurement of urinary cotinine (Diagnostics Products Corp, CA).
A blood sample was obtained from the antecubital vein of each participant after an overnight fast (˜12 h) into blood collection tubes (Vacutainer, Becton Dickinson, Franklin Lakes, N.J.) containing sodium heparin. Smokers were asked to refrain from smoking for 1 h prior to blood collection to obviate transient oxidative stress effects. Plasma was separated by centrifugation (500×g, 15 min, 4° C.; Beckman TJ-6, Palo Alto, Calif.), aliquoted into cryovials, snap frozen in liquid nitrogen, and then stored at −80° C. until analysis. Urine was collected for 24 h on a single occasion to evaluate urinary cotinine. Aliquots of urine were stored at −80° C. until analysis.
Two hundred-μl aliqots of human plasma were acidified with 250 μl of 0.1 M HCl. One ml of water was then added. Ethyl acetate was used to extract the ascorbyl-HNE conjugate (3×3 ml). The combined organic layers were then dried under a stream of nitrogen. The residue was redissolved in 65 μl of ethanol and mixed with 65 μl of LC Solvent A. Prior to injection, the samples were centrifuged for 5 min at 10,000 RPM. Injection volumes were 20 μl. Controls for the formation of ex vivo-artifact formation were performed as described previously.
A curve allowing for the determination of ascorbylated HNE in human plasma was constructed utilizing liquid chromatography with tandem mass spectrometry operated in multiple reaction monitoring mode (LC/MS/MS-MRM). Varying amounts of the ascorbyl-HNE adduct were mixed with a fixed amount of the internal standard, ascorbyl-octenal, to give 0.5, 1.0, 5.0, 10 and 50 μM of the analyte and 25 μM of the internal standard. […] The transitions m/z 350→m/z 177 and m/z 320→m/z 223 were used for quantitation of the synthetic standard and internal standard, respectively. […]
Plasma samples from twenty subjects, ten smokers and ten nonsmokers, were prepared as described above, with the exception that the samples were spiked with internal standard (ascorbyl-octenal, 25 μM final concentration) prior to extraction. The samples were analyzed by LC/MS/MS-MRM and the concentration of the ascorbyl-HNE adduct determined through comparison with a calibration curve. […]
F2-isoprostane levels of the plasma samples also were determined. […]

[2] = Standard addition experiments on nonsmoker and smoker plasma; assay type: in vivo, human
Protocol: Two hundred-μl-Aliquots of a plasma sample were spiked with varying amounts of ascorbyl-HNE adduct to give concentrations of 1.0, 2.0, 4.0 and 6.0 μM. The plasma samples were also spiked with internal standard (ascorbyl-octenal, 25 μM final concentration). The samples were analyzed by LC/MS/MS-MRM as described above.
Standard addition experiments were conducted on nonsmoker and smoker plasma to further assess the accuracy and precision of the method developed for determination of the ascorbyl-HNE conjugate concentration in human plasma (FIGS. 6A and 6B). Aliquots of a nonsmoker plasma sample were spiked with synthetic ascorbyl-HNE adduct (1, 2, 4 and 6 μM) and ascorbyl-octenal adduct (25 μM). The samples were extracted as described previously and analyzed by LC/MS/MS-MRM (FIG. 6A). Aliquots of synthetic ascorbyl-HNE adduct and internal standard were run in parallel (FIG. 6B). Extrapolation of curve A1 to y=0 gave an ascorbyl-HNE conjugate concentration of 2.28 μM. A blank plasma sample was analyzed using the calibration curve (FIG. 6, curve A2), and the ascorbyl-HNE conjugate concentration was determined to be 2.68 μM. An analogous experiment using smoker plasma was conducted and the results are shown in FIG. 6, panel B. Extrapolation of curve B1 to y=0 gives an ascorbyl-HNE concentration of 0.35 μM. Analysis of this plasma sample using curve B2 of FIG. 6 gives a concentration of 0.32 μM.

CCCCCC1OC(O)CC1C1(O)C(=O)OC2C(O)COC21O (stereo not drawn) [ascorbyl-HNE conjugate, 3,3α,6-trihydroxy-3-(5-hydroxy 2-pentyl-tetrahydro-furan-3-yl)-tetrahydro-furo[3,2-b]furan-2-one]
plasma ascorbyl-HNE conjugate concentration ([1]; nonsmokers (n = 10)): 1.16 µM | plasma ascorbyl-HNE conjugate concentration ([1]; nonsmokers (n = 10), listed as Ascorbyl-HNE): 1.16 ± 0.65 µM | plasma ascorbyl-HNE conjugate concentration ([1]; smokers (n = 10)): 0.40 µM | plasma ascorbyl-HNE conjugate concentration ([1]; smokers (n = 10), listed as Ascorbyl-HNE): 0.40 ± 0.31 µM | ascorbyl-HNE conjugate concentration, calibration curve A2 ([2]; nonsmoker plasma sample, blank (unspiked)): 2.68 µM | ascorbyl-HNE conjugate concentration, extrapolation of curve A1 to y=0 ([2]; nonsmoker plasma sample, standard addition): 2.28 µM | ascorbyl-HNE concentration, curve B2 ([2]; smoker plasma sample): 0.32 µM | ascorbyl-HNE concentration, extrapolation of curve B1 to y=0 ([2]; smoker plasma sample, standard addition): 0.35 µM
